Experimental data published in patent publication US20200172956A1 (NATIONAL UNIVERSITY CORPORATION KUMAMOTO UNIVERSITY, published 2020).
Results are given in words; binding and its absence hold for the method and conditions named. Some binding calls cover weakened binding; strength is not graded here.

The chains behind the UniProt entries cited, without tags or fusion partners. Where a name states a change or a piece, a line headed by the entry shows the natural chain unless it says otherwise.
UniProt Q01955: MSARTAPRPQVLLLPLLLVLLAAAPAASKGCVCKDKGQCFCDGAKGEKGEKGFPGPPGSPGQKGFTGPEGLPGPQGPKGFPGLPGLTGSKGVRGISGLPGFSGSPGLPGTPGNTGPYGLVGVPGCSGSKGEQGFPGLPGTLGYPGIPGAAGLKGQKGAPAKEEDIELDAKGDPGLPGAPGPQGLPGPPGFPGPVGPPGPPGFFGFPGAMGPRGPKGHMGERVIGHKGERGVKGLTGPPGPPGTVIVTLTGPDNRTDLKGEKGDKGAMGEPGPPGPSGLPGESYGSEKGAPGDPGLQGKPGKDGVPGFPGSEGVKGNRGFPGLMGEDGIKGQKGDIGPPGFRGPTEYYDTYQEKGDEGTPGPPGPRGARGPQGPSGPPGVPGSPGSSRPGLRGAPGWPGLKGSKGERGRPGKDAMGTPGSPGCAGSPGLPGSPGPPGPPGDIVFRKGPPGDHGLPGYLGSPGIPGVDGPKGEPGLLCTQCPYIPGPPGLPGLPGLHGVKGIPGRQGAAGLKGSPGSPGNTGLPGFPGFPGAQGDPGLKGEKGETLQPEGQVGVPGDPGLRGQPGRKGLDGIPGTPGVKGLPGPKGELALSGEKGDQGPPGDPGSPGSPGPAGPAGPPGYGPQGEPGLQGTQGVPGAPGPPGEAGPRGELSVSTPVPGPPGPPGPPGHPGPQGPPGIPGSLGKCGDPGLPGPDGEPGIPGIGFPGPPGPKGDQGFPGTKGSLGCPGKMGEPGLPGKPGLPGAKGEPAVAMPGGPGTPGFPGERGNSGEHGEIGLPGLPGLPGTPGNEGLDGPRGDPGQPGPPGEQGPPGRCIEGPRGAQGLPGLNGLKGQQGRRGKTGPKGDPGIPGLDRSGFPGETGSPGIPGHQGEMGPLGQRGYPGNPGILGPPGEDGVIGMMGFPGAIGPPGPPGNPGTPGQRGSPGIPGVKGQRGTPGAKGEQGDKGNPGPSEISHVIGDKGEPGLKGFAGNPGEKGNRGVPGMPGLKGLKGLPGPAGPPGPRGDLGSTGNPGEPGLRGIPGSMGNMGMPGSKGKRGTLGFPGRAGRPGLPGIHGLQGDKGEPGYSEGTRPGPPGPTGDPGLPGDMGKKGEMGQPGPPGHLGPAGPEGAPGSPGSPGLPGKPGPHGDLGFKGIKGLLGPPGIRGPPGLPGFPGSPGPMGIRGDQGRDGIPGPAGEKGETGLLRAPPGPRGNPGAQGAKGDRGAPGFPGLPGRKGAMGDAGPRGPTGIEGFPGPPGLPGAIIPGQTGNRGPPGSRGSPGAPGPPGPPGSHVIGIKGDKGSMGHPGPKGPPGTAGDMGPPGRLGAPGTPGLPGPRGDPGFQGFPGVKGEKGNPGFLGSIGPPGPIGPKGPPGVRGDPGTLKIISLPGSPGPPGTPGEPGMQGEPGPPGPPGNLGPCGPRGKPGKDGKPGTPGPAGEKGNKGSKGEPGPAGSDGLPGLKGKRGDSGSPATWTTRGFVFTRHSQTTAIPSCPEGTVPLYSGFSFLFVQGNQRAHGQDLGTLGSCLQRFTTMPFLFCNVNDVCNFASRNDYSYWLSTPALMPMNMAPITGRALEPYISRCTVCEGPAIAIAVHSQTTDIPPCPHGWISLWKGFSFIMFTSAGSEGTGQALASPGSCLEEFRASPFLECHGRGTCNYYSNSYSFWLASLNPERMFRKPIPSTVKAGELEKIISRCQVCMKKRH
UniProt P29400: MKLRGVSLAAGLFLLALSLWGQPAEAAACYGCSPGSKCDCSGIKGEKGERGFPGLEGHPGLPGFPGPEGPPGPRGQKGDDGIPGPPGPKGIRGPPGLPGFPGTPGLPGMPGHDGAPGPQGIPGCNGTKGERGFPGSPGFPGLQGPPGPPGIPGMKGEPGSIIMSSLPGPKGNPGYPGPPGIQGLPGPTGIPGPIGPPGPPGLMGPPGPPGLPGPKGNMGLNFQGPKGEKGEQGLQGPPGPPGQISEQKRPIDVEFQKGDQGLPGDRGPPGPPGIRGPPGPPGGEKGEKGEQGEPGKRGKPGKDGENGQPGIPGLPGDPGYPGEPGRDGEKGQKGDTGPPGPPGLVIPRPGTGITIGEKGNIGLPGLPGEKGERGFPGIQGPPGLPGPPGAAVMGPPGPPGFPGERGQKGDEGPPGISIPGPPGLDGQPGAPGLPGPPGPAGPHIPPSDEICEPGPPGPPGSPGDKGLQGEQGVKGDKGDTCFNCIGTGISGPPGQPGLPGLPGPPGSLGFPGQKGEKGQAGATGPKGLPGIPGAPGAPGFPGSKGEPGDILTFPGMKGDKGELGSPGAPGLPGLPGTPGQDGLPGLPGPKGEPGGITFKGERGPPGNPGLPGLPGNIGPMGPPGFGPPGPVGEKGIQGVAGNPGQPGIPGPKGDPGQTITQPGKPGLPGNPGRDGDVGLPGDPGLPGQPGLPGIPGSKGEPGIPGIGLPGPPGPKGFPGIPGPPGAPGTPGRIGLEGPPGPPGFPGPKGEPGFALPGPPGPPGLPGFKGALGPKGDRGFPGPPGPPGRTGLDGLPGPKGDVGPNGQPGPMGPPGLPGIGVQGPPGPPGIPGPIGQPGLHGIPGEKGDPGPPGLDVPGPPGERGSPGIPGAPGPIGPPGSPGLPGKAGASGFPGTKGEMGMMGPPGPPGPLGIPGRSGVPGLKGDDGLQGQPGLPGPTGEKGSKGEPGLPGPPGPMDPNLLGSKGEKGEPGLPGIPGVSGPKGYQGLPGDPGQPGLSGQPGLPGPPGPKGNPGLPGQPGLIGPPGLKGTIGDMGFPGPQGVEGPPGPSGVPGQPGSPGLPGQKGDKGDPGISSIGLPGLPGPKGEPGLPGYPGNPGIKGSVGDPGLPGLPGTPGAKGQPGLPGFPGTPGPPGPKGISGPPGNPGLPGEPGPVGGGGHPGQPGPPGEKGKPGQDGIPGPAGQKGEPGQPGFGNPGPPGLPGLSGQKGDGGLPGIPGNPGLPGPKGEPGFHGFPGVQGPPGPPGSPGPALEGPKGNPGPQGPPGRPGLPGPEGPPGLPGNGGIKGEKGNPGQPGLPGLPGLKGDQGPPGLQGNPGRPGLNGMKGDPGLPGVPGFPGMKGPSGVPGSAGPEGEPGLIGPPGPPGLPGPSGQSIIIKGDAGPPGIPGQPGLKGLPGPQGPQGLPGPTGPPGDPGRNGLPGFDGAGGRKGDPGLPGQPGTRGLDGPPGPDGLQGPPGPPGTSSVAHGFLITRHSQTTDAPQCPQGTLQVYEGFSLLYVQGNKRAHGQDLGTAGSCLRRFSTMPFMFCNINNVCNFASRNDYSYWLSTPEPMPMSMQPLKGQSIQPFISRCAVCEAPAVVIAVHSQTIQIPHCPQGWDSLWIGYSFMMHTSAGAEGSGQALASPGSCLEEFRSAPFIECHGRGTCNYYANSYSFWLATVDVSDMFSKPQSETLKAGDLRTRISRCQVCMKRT
UniProt P53420: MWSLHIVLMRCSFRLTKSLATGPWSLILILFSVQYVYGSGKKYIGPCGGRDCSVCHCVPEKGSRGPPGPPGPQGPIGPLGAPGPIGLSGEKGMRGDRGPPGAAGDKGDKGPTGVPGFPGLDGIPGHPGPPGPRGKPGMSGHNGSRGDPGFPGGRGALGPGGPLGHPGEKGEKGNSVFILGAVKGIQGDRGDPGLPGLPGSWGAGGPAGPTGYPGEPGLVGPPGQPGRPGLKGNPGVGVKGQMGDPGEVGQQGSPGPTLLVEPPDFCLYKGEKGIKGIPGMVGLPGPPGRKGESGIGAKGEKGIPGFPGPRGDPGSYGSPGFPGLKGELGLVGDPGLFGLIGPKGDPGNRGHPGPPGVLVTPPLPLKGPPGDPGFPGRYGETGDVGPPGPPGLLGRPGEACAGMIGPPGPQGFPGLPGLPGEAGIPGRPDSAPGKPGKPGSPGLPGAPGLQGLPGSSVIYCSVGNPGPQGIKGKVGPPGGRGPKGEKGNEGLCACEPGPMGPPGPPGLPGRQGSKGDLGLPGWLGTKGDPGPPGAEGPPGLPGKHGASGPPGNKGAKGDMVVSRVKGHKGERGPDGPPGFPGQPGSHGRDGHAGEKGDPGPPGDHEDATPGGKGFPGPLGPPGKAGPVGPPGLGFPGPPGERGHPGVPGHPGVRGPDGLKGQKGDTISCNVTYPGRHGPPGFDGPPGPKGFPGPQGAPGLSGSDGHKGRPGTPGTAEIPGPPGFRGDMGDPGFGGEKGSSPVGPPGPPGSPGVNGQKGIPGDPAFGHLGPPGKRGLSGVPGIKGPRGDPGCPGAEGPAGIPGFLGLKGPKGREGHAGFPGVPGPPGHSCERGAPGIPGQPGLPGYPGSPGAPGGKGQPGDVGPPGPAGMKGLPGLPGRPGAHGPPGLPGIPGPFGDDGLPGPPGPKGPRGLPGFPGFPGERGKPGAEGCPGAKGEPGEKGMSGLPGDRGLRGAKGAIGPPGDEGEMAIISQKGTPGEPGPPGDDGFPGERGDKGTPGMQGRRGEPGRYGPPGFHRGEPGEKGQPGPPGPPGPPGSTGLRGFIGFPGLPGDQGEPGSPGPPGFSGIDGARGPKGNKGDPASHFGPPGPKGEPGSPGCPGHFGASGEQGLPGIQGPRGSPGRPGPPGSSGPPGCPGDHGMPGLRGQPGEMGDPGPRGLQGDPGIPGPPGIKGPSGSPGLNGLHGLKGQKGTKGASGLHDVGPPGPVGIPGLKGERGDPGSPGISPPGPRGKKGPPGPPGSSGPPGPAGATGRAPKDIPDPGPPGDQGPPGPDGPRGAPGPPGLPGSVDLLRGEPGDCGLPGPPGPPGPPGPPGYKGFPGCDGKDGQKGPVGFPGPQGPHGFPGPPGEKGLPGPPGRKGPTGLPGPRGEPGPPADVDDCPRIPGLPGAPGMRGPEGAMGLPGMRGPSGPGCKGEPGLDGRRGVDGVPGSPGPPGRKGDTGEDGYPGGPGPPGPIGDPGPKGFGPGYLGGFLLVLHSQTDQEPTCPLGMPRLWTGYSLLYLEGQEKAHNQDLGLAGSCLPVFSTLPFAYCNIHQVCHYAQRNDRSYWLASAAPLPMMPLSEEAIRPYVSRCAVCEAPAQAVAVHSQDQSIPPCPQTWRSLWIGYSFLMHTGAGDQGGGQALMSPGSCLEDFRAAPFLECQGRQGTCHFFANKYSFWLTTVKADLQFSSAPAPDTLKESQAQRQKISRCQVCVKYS

Key:
[1] = molecular target: type IV collagen α3-SmBiT (fusion protein having SmBiT at the C-terminal of wild-type type IV collagen α3(IV) chain) (Homo sapiens (Human)) (UniProt Q01955); experiment: split luciferase (NanoBiT) complementation between α3-SmBiT and α5-LgBiT; signal seen only when α4-FLAG was co-expressed
[2] = molecular target: type IV collagen α5-LgBiT (fusion protein having LgBiT at the C-terminal of wild-type type IV collagen α5(IV) chain) (Homo sapiens (Human)) (UniProt P29400); experiment: as above
[3] = molecular target: type IV collagen α3-SmBiT (fusion protein having SmBiT at the C-terminal of wild-type type IV collagen α3(IV) chain) (Homo sapiens (Human)) (UniProt Q01955); experiment: split luciferase (NanoBiT) complementation; transfected amount of α4-FLAG plasmid varied, α3-SmBiT and α5-LgBiT co-expressed
[4] = molecular target: type IV collagen α5-LgBiT (fusion protein having LgBiT at the C-terminal of wild-type type IV collagen α5(IV) chain) (Homo sapiens (Human)) (UniProt P29400); experiment: as above

Measured: binding

type IV collagen α4-FLAG (fusion protein having a FLAG tag at the C-terminal of wild-type type IV collagen α4(IV) chain) (from UniProt P53420 39-1690)
binds: all assays above
